Structures can show the parent of a compound that is named as a salt. Some of the results follow. This is a noisy data set.
System: Peyronie's disease tunica albuginea primary fibroblasts
Assay: inhibition of TGF-beta1-induced alpha-SMA expression (myofibroblast transformation), relative to TGF-beta1-only and untreated controls; higher = stronger inhibition of myofibroblast transformation
Conditions: 10 µM; TGF-beta1 10 ng/mL; 72 h

SMILES | inhibition of TGF-beta1-induced alpha-SMA expression [%]
CCCCCCCN(CC)CCCC(O)c1ccc(NS(C)(=O)=O)cc1 (stereo not given) [Ibutilide Fumarate] | 26.3
OC[C@@H](O)[C@@H](O[C@@H]1O[C@H](CO)[C@H](O)[C@H](O)[C@H]1O)[C@H](O)[C@@H](O)CO [Lactitol monohydrate] | 27.8
OC[C@@H](O)[C@@H](O[C@@H]1O[C@H](CO)[C@H](O)[C@H](O)[C@H]1O)[C@H](O)[C@@H](O)CO [Lactitol] | -19.4
c1ccc2[nH]c(-c3cscn3)nc2c1 [Thiabendazole] | 8.73
CC(C)(C)NC(=O)N[C@H](C(=O)N1C[C@H]2[C@@H]([C@H]1C(=O)NC(CC1CCC1)C(=O)C(N)=O)C2(C)C)C(C)(C)C (stereo not given in full) [Boceprevir] | 7.52
CN1CC2c3ccccc3Oc3ccc(Cl)cc3C2C1 (stereo not given) [Asenapine maleate] | > 100
COc1cc(C(=O)NC2CCCNC2)cc(OC)c1OC (stereo not given) [Troxipide] | -6.45
C[C@]12CC[C@@H]3c4ccc(O)cc4CC[C@H]3[C@@H]1CCC2=O [Estrone] | 13.8
CCCCCCCCc1ccc(CCC(N)(CO)CO)cc1 [Fingolimod (FTY720) HCl] | > 100
O=C1OC2(c3ccc(O)cc3Oc3cc(O)ccc32)c2ccccc21 [Fluorescein] | 17.3
CN(C)[C@@H]1C(O)=C(C(N)=O)C(=O)[C@@]2(O)C(O)=C3C(=O)c4c(O)ccc(Cl)c4[C@@](C)(O)[C@H]3C[C@@H]12 [Chlortetracycline HCl] | 29.4
CC(=O)OCC1=C(C(=O)O)N2C(=O)[C@@H](NC(=O)CSc3ccncc3)[C@H]2SC1 [Cephapirin Sodium] | 58.5
O=C(O)CCC(=O)Nc1ccc(S(=O)(=O)Nc2nccs2)cc1 [Succinylsulfathiazole] | -24.6
COc1cnc(NS(=O)(=O)c2ccc(N)cc2)nc1 [Sulfameter] | -4.25
O=C(O)CCn1c2c(c3ccccc31)C[C@H](NS(=O)(=O)c1ccc(F)cc1)CC2 [Ramatroban] | 16.3
Cc1cccc(CN2CCN(C(c3ccccc3)c3ccc(Cl)cc3)CC2)c1 (stereo not given) [Meclizine 2HCl] | 6.51
CCCCC(C)(O)C/C=C/[C@H]1[C@H](O)CC(=O)[C@@H]1CCCCCCC(=O)OC (mixture of isomers) [Misoprostol] | 38.4
COc1ccccc1O [Guaiacol] | 20.1
O=NN(CCCl)C(=O)NC1CCCCC1 [Lomustine] | 11
CCOC(=O)C1=C[C@]2(CC)CCCN3CCc4c(n1c1ccccc41)[C@@H]32 [Vinpocetine] | 6.67
CN1CCC(COc2cnc(-c3cccc(Cn4nc(-c5cccc(C#N)c5)ccc4=O)c3)nc2)CC1 | -23.3
CC(C)c1cc(C(=O)N2Cc3ccc(CN4CCN(C)CC4)cc3C2)c(O)cc1O | > 100

Exported with tabs: entries from further up
SMILES	inhibition of TGF-beta1-induced alpha-SMA expression [%]
CC(C)(C)NC(=O)N[C@H](C(=O)N1C[C@H]2[C@@H]([C@H]1C(=O)NC(CC1CCC1)C(=O)C(N)=O)C2(C)C)C(C)(C)C (stereo not given in full) [Boceprevir]	7.52
CN1CC2c3ccccc3Oc3ccc(Cl)cc3C2C1 (stereo not given) [Asenapine maleate]	> 100
COc1cc(C(=O)NC2CCCNC2)cc(OC)c1OC (stereo not given) [Troxipide]	-6.45
C[C@]12CC[C@@H]3c4ccc(O)cc4CC[C@H]3[C@@H]1CCC2=O [Estrone]	13.8

(cont.)

SMILES | inhibition of TGF-beta1-induced alpha-SMA expression [%]
CC(C)NCC(O)COc1cccc2ccccc12 (stereo not given) [Propranolol HCl] | 75.6
Cc1nc(NC(=O)N2CCC[C@H]2C(N)=O)sc1-c1ccnc(C(C)(C)C(F)(F)F)c1 [Alpelisib (BYL719)] | -17.5
CCCCc1nc(C)c(CC(=S)N(C)C)c(=O)n1Cc1ccc(-c2ccccc2-c2nnn[nH]2)cc1 [Fimasartan] | 1.32
CCCCCCc1ccc(O)cc1O [Hexylresorcinol] | 51
O=C(/C=C\n1cnc(-c2cc(C(F)(F)F)cc(C(F)(F)F)c2)n1)NNc1cnccn1 [Selinexor (KPT-330)] | 68.4
CC1(C)NC(=O)N(c2ccc([N+](=O)[O-])c(C(F)(F)F)c2)C1=O [Nilutamide] | 29.7
COC(=O)[C@@H]1[C@H]2C[C@H]3c4[nH]c5ccccc5c4CCN3C[C@@H]2CC[C@@H]1O [Yohimbine HCl] | -16.9
CCS(=O)(=O)CCn1c([N+](=O)[O-])cnc1C [Tinidazole] | 39.1
N#C[C@@H]1C[C@@H]2C[C@@H]2N1C(=O)[C@@H](N)C12CC3CC(CC(O)(C3)C1)C2 [Saxagliptin] | -0.684
N#C[C@@H]1C[C@@H]2C[C@@H]2N1C(=O)[C@@H](N)C12CC3CC(CC(O)(C3)C1)C2 [Saxagliptin hydrate] | 14
O=C1CCc2cc(OCCCCc3nnnn3C3CCCCC3)ccc2N1 [Cilostazol] | -5.38
CCCCOc1cc(C(=O)NCCN(CC)CC)c2ccccc2n1 [Cinchocaine] | 3.4
CCCCOc1cc(C(=O)NCCN(CC)CC)c2ccccc2n1 [Dibucaine HCl] | 28
CCC1=C(C)CN(C(=O)NCCc2ccc(S(=O)(=O)NC(=O)N[C@H]3CC[C@H](C)CC3)cc2)C1=O [Glimepiride] | -1.54
OCc1cc(C(O)CNCCCCCCOCCCCc2ccccc2)ccc1O (stereo not given) [Salmeterol] | 34.1
OCc1cc(C(O)CNCCCCCCOCCCCc2ccccc2)ccc1O (stereo not given) [Salmeterol Xinafoate] | 12.4
CC(=O)OCC(=O)[C@@]12N=C(C)O[C@@H]1C[C@H]1[C@@H]3CCC4=CC(=O)C=C[C@]4(C)[C@H]3[C@@H](O)C[C@@]12C [Deflazacort] | 32.2
CNCCC(Oc1ccc(C(F)(F)F)cc1)c1ccccc1 (stereo not given) [Fluoxetine HCl] | 23.8
Cc1nc2n(c(=O)c1CCN1CCC(c3noc4cc(F)ccc34)CC1)CCCC2 [Risperidone] | 6.2
N=C(N)NCCC[C@H](N)C(=O)O [L-Arginine HCl (L-Arg)] | 10.6
CC1CCC(C(C)C)C(O)C1 (single isomer, unassigned; (-)) [(-)-Menthol] | 13.7
CC(=O)Nc1ccc(CC(=O)O)cc1 [Actarit] | 17.5

SMILES | inhibition of TGF-beta1-induced alpha-SMA expression [%]
C[C@@H](CN1CC(=O)NC(=O)C1)N1CC(=O)NC(=O)C1 [Dexrazoxane] | 27.7
C[C@@H](CN1CC(=O)NC(=O)C1)N1CC(=O)NC(=O)C1 [Dexrazoxane HCl (ICRF-187, ADR-529)] | -17.6
CC(=O)N[C@H]1[C@H]([C@H](O)[C@H](O)CO)OC(C(=O)O)=C[C@@H]1NC(=N)N [Zanamivir] | 5.11
CCC(=O)O[C@]1(C(=O)CCl)[C@@H](C)C[C@H]2[C@@H]3C[C@H](F)C4=CC(=O)C=C[C@]4(C)[C@@]3(F)[C@@H](O)C[C@@]21C [Halobetasol Propionate] | 51.4
CCN1CC(CCN2CCOCC2)C(c2ccccc2)(c2ccccc2)C1=O (stereo not given) [Doxapram] | 14.5
CCN1CC(CCN2CCOCC2)C(c2ccccc2)(c2ccccc2)C1=O (stereo not given) [Doxapram HCl] | -2.54
CC[C@H](C)[C@H](NC(=O)[C@@H]1CCCN1C(=O)CNC(=O)[C@H](Cc1ccccc1)NC(=O)[C@H](CC(N)=O)NC(=O)[C@H](CC(N)=O)NC(=O)[C@H](CO)NC(=O)[C@H](CO)NC(=O)[C@H](Cc1c[nH]cn1)NC(=O)[C@@H](NC(=O)[C@H](CC(C)C)NC(=O)[C@H](Cc1ccccc1)NC(=O)[C@H](CC(N)=O)NC(=O)[C@H](C)NC(=O)[C@H](CC(C)C)NC(=O)[C@H](CCCNC(=N)N)NC(=O)[C@H](CCC(N)=O)NC(=O)[C@@H](NC(=O)[C@H](C)NC(=O)[C@@H]1CSSC[C@H](NC(=O)[C@@H](N)CCCCN)C(=O)N[C@@H](CC(N)=O)C(=O)N[C@@H]([C@@H](C)O)C(=O)N[C@@H](C)C(=O)N[C@@H]([C@@H](C)O)C(=O)N1)[C@@H](C)O)C(C)C)C(=O)N[C@@H](CC(C)C)C(=O)N1CCC[C@H]1C(=O)N1CCC[C@H]1C(=O)N[C@H](C(=O)N[C@@H](CC(N)=O)C(=O)N[C@H](C(=O)NCC(=O)N[C@@H](CO)C(=O)N[C@@H](CC(N)=O)C(=O)N[C@H](C(=O)N[C@@H](Cc1ccc(O)cc1)C(N)=O)[C@@H](C)O)C(C)C)[C@@H](C)O [Pramlintide Acetate] | 51.2
CCCCNC(=O)NS(=O)(=O)c1ccc(C)cc1 [Tolbutamide] | 29.7
O=C(O)c1cc(-c2ccc(F)cc2F)ccc1O [Diflunisal] | 43.8
CCOC(=O)OC(C)OC1=C(C(=O)Nc2ccccn2)N(C)S(=O)(=O)c2ccccc21 (stereo not given) [Ampiroxicam] | 20.8
O=C(Nc1c(Cl)cncc1Cl)c1ccc(OC(F)F)c(OCC2CC2)c1 [Roflumilast] | 49
CCCS(=O)(=O)Nc1ccc(F)c(C(=O)c2c[nH]c3ncc(-c4ccc(Cl)cc4)cc23)c1F [Vemurafenib (PLX4032, RG7204)] | 16.2
CCCCCCCCCCCCC[N+](C)(C)Cc1ccccc1 [Benzalkonium chloride] | > 100
CCOc1ccccc1OCCN[C@H](C)Cc1ccc(OC)c(S(N)(=O)=O)c1 [Tamsulosin hydrochloride] | -35.7
CCn1cc(C(=O)O)c(=O)c2cnc(N3CCCC3)nc21 [Piromidic Acid] | -13.9
O=S(=O)(O)CCS [Mesna] | -2.79
COc1ccc(-c2nc3cc(C4=NNC(=O)CC4C)ccc3[nH]2)cc1 (stereo not given) [Pimobendan] | 54.9
NS(=O)(=O)c1cc2c(cc1Cl)N=CNS2(=O)=O [Chlorothiazide] | 12.5
CN[C@H](CC(C)C)C(=O)N[C@H]1C(=O)N[C@@H](CC(N)=O)C(=O)N[C@H]2C(=O)N[C@H]3C(=O)N[C@H](C(=O)N[C@H](C(=O)O)c4cc(O)cc(O)c4-c4cc3ccc4O)[C@H](O)c3ccc(c(Cl)c3)Oc3cc2cc(c3O[C@@H]2O[C@H](CO)[C@@H](O)[C@H](O)[C@H]2O[C@H]2C[C@](C)(N)[C@H](O)[C@H](C)O2)Oc2ccc(cc2Cl)[C@H]1O [Vancomycin HCl] | -22.9
CNS(=O)(=O)Cc1ccc2[nH]cc(CCN(C)C)c2c1 [Sumatriptan Succinate] | 30.7
NC(=O)c1ncn([C@@H]2O[C@H](CO)[C@@H](O)[C@H]2O)n1 [Ribavirin] | 11.1

— the supplement of paper PMC9744312
